Laboratory results taken from patent publication US9458100B2, “Synthesis and growth regulatory activity of a prototype member of a new family of aminothiol radioprotectors” (Wisconsin Alumni Research Foundation, priority 2012, dated 2016).

Experiment: Smell score comparison with a 2-mercaptoethanol dilution series
Conditions: solution at approximate single maximum human dose; one score per subject

In the case of CNCC(CS)CNC [PrC-210, 3-(methyl-amino)-2-((methylamino)methyl)propane-1-thiol], the “smell score (matching 2-ME dilution)” value is reported as 8 and 7.

Where “and” joins values, the source holds several entries; their conditions need not be identical. Equal values may be shown once.
